Source: PMC2667391
These are yes or no findings as the source states them, for the method shown. Binding seen in cells or lysates may run through a third protein. Binding can be weak; no strength is given. Sequences can lack the tags named with a protein.

Target: T1, Myc-tagged MAP1S (full length, from pUHD10-3) (UniProt Q66K74)
T1 sequence: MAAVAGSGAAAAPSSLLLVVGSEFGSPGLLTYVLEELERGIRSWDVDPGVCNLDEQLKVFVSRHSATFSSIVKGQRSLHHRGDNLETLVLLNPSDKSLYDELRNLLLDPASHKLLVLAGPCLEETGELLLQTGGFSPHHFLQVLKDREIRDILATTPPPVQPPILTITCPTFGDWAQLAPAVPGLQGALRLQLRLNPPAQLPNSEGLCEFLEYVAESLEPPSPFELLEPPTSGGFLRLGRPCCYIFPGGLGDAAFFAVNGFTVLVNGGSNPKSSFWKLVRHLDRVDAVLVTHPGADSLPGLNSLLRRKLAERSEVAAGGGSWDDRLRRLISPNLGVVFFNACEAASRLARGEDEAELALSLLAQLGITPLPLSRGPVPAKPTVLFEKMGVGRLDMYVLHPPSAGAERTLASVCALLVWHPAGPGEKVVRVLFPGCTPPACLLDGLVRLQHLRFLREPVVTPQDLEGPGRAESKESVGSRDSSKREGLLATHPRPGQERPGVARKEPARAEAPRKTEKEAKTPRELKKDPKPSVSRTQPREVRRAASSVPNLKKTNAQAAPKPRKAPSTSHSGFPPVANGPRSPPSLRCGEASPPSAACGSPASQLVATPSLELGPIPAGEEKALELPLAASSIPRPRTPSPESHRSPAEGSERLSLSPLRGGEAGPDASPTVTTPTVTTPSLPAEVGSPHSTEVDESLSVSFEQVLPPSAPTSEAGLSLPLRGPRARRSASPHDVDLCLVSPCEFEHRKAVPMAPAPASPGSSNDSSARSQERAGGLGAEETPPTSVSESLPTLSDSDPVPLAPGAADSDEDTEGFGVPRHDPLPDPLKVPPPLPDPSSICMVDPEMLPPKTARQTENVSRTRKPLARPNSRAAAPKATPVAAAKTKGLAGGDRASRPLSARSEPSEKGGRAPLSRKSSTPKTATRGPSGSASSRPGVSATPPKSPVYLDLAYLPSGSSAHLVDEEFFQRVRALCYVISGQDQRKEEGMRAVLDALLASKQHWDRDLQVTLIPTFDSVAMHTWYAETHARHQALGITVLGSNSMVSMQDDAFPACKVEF
Experiment: co-IP; HepG2 cells transfected with pcDNA3mim and/or pUHD10-3 plus pUHD15-1; 24 h after transfection lysates on anti-c-Myc column (ProFound c-Myc Tag IP/Co-IP Kit); eluates blotted with anti-mimitin and anti-Myc antibodies

mimitin overexpressed from pcDNA3mim (human)
binding: binds
